Reference: PubChem BioAssay AID1224830 (NIAID, 2016)
Test: 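Genes whose knock-down alters the TNF-alpha reporter response to LPS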 (primary screen). Cells: human THP-1 monocytic leukaemia cells, TNF dual-luciferase reporter clone, PMA-differentiated to macrophage-like cells. Reagent: siRNA pool against human genes, 50 nM. Time to read-out: LPS for 4 h, given about 3 days after siRNA transfection. Conditions: bacterial LPS (TLR4 ligand), 10 ng/ml. Detection: 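TNF firefly reporter luminescence divided by renilla, normalised to the plate median, then turned into a robust z-score for each replicate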. Scale: TNF reporter robust z-score: higher = stronger TNF reporter response to LPS. Call rule: 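a well is active when its z-score exceeds 2.8 or falls below -1.5; control wells carry no call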.
This is a random part of about 18,000 reagents. About 2,900 of them (16%) count as active. 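Calls are made per well; low scores hint the gene aids the LPS response, high scores that it dampens it.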 Repeated entries: four replicate wells of each siRNA pool.

With knock-down of NBN [SID315450155], the screen gave TNF reporter robust z-score -1.14; inactive.
Knock-down of NBN [SID315450155] gave: TNF reporter robust z-score 0.1; inactive.
Silencing of NBN [SID315450155] resulted in: TNF reporter robust z-score 0.01; inactive.
With knock-down of NBN [SID315450155], the screen gave TNF reporter robust z-score -0.78; inactive.
PINX1 [SID315457322] showed TNF reporter robust z-score -0.33; inactive.
Silencing of PINX1 [SID315457322] gave: TNF reporter robust z-score -0.64; inactive.
Depletion of PINX1 [SID315457322] resulted in: TNF reporter robust z-score -0.47; inactive.

The listing continues.
Silencing of TIE1 [SID315451877] gave: TNF reporter robust z-score 3.99; active.
With knock-down of TIE1 [SID315451877] the results were TNF reporter robust z-score 2.66; inactive.
TIE1 [SID315451877] gave TNF reporter robust z-score 0.71; inactive.
TIE1 [SID315451877] scored TNF reporter robust z-score 2.32; inactive.
With knock-down of CIDEA [SID315447938], the record shows TNF reporter robust z-score -0.96; inactive.
Silencing of CIDEA [SID315447938] gave: TNF reporter robust z-score -0.01; inactive.
Silencing of CIDEA [SID315447938] came out at: TNF reporter robust z-score -0.56; inactive.
Against CIDEA [SID315447938] the deposit lists TNF reporter robust z-score -0.63; inactive.
Depletion of MAP3K11 [SID315449987] gave: TNF reporter robust z-score -0.59; inactive.
MAP3K11 [SID315449987] scored TNF reporter robust z-score -0.68; inactive.
MAP3K11 [SID315449987] gave TNF reporter robust z-score -0.41; inactive.
Depletion of MAP3K11 [SID315449987] resulted in: TNF reporter robust z-score -0.78; inactive.
